The values below are quoted from earlier work in patent publication US20140045927A1, “PREPARATIONS OF TAXANES FOR INTRAVENOUS ADMINISTRATION AND THE PREPARATION METHOD THEREOF” (Tianjin Tasly Group Co., Ltd., priority 2009, published 2014).

The conditions of this data set: in water.

For `CC(=O)O[C@H]1C(=O)[C@@]2(C)[C@H]([C@H](OC(=O)c3ccccc3)[C@]3(O)C[C@H](OC(=O)[C@H](O)[C@@H](NC(=O)c4ccccc4)c4ccccc4)C(C)=C1C3(C)C)[C@]1(OC(C)=O)CO[C@@H]1C[C@@H]2O` [paclitaxel], the water-solubility was 4 µg/mL.
